Laboratory results published in patent US20260029420A1, “ANTI-CB2 ANTIBODIES AND THEIR USE IN A FLOW CYTOMETRY ASSAY TO MEASURE CELL SURFACE CB2 EXPRESSION” (Hoffmann-La Roche Inc., priority 2022, published 2026).
Results are given in words; binding and its absence hold for the method and conditions named. Some entries that bind do so weakly or less than the wild type.

Protein sequences, listed by entry. Tags and fused reporters are not part of them.
UniProt G7NVV5: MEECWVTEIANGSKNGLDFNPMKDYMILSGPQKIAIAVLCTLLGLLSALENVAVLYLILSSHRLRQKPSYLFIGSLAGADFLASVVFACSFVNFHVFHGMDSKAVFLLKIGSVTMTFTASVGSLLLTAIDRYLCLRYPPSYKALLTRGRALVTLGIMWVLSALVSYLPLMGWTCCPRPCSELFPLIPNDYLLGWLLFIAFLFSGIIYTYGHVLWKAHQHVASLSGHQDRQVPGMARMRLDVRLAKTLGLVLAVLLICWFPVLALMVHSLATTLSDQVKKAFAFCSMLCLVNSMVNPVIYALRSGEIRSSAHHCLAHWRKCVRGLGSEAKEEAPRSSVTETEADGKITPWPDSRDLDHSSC

Target: cynomolgus CB2 (cynomolgus monkey) (UniProt G7NVV5)
Assay: flow cytometry on B-cells in cynomolgus whole blood

binding: binds
B1: Anti-CB2 clone 1/622 (antibody, IgG3, V domains shown)
VH: EVQLQQSGPELVKPGASVKISCKTSGYTFTEYTMHWVRQSHGKSLEWIGGIDRYNGDTYYNQKFKDKATLTVDRSSSTAYMELRSLTSEDSAVYFCARNGAMDYWGQGISVTVSS
VL: DVVMTQTPLSLPVSLGDQASISCRSSQSLVHSNGNTYLHWFLQKPGQSPKLLIYKVSIRFSGVPDRFSGSGSGTDFTLKISRVEAEDLGVYFCSQSTHVPPLTFGAGTKLELKR
